Results are given in words; binding and its absence hold for the method and conditions named. In cells and extracts the contact can be indirect. Some results given as binding are weak or reduced against the parent protein; the word gives no strength.
Legend:
[1] = molecular target: T1, muscle-specific kinase (MUSK), endogenous mouse (mouse (endogenous in mouse muscle and mouse myotubes)) (UniProt Q61006); assay: co-IP; MUSK immunoprecipitated (antibody MUSK 1A, Protein G-agarose) from leg muscle lysates of E18.5 wild-type, Dok7 CM/CM and Dok7 2YF/2YF mice, 1% NP-40; blot for CRK; CRK normalized to MUSK was 2.8-fold lower in Dok7 CM/CM and 28% lower in Dok7 2YF/2YF mice
T1 sequence (chain, tyrosine phosphorylated (level depends on genotype and AGRIN)): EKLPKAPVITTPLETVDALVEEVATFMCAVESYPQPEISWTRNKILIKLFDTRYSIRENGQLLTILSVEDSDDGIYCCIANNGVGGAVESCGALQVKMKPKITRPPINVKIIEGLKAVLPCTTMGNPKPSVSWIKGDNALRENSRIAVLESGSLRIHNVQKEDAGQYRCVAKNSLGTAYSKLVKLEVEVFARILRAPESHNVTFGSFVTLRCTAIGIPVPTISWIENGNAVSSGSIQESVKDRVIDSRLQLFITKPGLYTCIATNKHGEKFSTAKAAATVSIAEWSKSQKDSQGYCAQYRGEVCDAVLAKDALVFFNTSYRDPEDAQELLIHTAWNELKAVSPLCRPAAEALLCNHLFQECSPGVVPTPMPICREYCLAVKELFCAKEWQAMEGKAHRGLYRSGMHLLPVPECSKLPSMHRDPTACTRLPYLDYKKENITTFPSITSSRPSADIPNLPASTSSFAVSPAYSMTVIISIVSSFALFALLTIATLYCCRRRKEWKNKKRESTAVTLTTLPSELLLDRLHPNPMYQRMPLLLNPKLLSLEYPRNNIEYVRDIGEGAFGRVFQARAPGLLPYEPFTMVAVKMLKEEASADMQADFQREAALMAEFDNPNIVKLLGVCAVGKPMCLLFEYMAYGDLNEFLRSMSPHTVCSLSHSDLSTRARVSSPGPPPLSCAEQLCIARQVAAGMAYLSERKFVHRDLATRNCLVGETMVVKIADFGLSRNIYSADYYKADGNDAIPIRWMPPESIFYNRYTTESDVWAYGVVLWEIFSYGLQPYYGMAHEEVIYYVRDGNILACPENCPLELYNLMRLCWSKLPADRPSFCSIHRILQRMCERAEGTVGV

The chains behind the UniProt entries cited, without tags or fusion partners. Where a name states a change or a piece, a line headed by the entry shows the natural chain unless it says otherwise. A line that says so, or that is headed by a name, gives the form on record, which may keep a tag or linker. Residues count along the entry.
UniProt Q64010: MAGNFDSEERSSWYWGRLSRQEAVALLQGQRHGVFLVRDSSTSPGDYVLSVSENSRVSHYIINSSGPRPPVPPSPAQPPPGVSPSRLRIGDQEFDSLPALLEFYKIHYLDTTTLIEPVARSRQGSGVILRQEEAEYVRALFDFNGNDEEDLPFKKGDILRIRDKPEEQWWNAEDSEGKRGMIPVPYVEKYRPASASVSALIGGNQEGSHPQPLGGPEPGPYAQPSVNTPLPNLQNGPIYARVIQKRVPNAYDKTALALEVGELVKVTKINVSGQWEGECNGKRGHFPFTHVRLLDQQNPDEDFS
HA-tagged CRKI: residues 1-204 of Q64010

[2] = molecular target: T2, MUSK JM region phosphopeptide (2), pY553, biotinylated; assay: pull-down; biotinylated peptides on streptavidin-agarose beads, incubated overnight at 4 °C with pre-cleared lysates of transfected HEK 293 cells in lysis buffer with 1% NP-40; blot for HA; only the target purified
T2 sequence (peptide, phosphotyrosine p(Y) (Y553); biotin (end not stated)): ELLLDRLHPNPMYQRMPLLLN

[3] = molecular target: T3, MUSK JM region phosphopeptide (3), pY553, PTB-binding site mutated (N to A), biotinylated; assay: as above
T3 sequence (peptide, phosphotyrosine p(Y) (Y553); biotin (end not stated)): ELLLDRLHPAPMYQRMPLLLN

binding [1]	binding [2]	binding [3]	Substance
binds	–	–	CRK, endogenous mouse (from UniProt Q64010 1-304)
–	binds	binds	HA-tagged CRKI (from UniProt Q64010-2 1-204)

From publication PMC8277574
